Measured values as given in PubChem BioAssay AID240 (DTP/NCI, 2004).
The list shows only some results of the screen, not a fair sample: it covers a few groups of compounds. Other doses and runs of a compound may be missing. T/C: endpoint of the treated group in % of that of the vehicle group. For survival time, this PubChem deposit counts one and a half times the control or more as active, and values a quarter to a half above the control carry no call in these data; other NCI protocols may use other cut-offs. Schedules are NCI's codes, taken here to give the interval after Q, in days (D) or hours (H), and the number of doses after X. Some doses were run more than once; their values stand side by side, smallest first. Some T/C values carry the count of animals alive at the toxicity check (mostly the fifth day); without a count or a note in brackets, all were alive then.

Test system: Lymphoma 4 ip in BDF1 mice, median survival
Assay: NCI In Vivo Anticancer Drug Screen. Data for tumor model Lymphoma 4 (intraperitoneal) in B6D2F1 (BDF1) mice
Details: T/C endpoint: median survival time, schedule: Q01DX010 (ip), vehicle: saline, higher T/C = longer survival
Procedure: The antitumor activity of compounds was measured in mice bearing transplantable tumors. Survival or tumor size were measured and the results are expressed as the measurement made in the treated group (T) divided by the measurement made in the vehicle treated control group (C). The tumor model used in this assay is Lymphoma 4 (intraperitoneal) in B6D2F1 (BDF1) mice

Structure (SMILES) | T/C (dose: 1.25 mg/kg/injection) | T/C (dose: 2.5 mg/kg/injection) | T/C (dose: 5.0 mg/kg/injection) | T/C (dose: 10.0 mg/kg/injection) | T/C (dose: 20.0 mg/kg/injection) | T/C (dose: 14.0 mg/kg/injection) | T/C (dose: 30.0 mg/kg/injection)
NC1CCCCC1.O=P(O)(N(CCCl)CCCl)N1CC1 | 110 % of control | 103 and 123 % of control | 119 and 136 % of control | 150 [4 of 6 alive] and 173 % of control | 196 % of control | – | –
CC[C@@H](C)[C@@H]1NC(=O)/C(=C(\C)O)C1=O.c1ccc(CNCCNCc2ccccc2)cc1 | – | – | – | 103 % of control | 103 % of control | 103 % of control | 100 % of control
